## Percent effect of library compounds

Sequences of proteins named here, by UniProt entry; tags and fusion partners are left off.
UniProt P9WNZ1, whole entry: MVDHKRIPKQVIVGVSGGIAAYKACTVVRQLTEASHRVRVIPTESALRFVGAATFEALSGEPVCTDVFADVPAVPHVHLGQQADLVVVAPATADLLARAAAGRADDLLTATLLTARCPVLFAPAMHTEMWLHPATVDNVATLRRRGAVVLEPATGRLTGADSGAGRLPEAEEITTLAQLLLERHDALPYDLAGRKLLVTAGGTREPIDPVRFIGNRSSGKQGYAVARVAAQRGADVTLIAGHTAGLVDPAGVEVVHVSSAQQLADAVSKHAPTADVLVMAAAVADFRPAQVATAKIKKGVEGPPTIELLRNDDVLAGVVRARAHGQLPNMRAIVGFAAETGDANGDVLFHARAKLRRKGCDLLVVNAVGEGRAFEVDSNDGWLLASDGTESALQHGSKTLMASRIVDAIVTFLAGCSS
UniProt P9WFT3, whole entry: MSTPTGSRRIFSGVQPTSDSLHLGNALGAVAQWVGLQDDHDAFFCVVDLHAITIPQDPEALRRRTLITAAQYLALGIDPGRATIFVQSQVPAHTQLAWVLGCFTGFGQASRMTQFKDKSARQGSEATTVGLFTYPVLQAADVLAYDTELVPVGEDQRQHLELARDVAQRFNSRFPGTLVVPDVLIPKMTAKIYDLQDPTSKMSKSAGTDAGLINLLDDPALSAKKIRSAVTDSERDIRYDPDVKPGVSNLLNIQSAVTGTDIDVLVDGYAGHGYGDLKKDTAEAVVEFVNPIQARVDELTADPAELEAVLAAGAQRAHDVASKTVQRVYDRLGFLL

CoaBC: 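Enzyme assay of CoaBC with a phosphate dye (Biomol Green) read at 650 nm. Target: Coenzyme A biosynthesis protein CoaBC, Mycobacterium tuberculosis (UniProt P9WNZ1). Concentration: 30 µM. Higher reads as stronger inhibition, judged from the few compounds that gave an IC50. Most strong results did not repeat in a second test. Size under these conditions: about 67,000 compounds, about 40 of them at 50% or above in at least one test.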
MtTrpRS: 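Enzyme assay of tryptophanyl-tRNA synthetase; the read-out is not stated. Target: Tryptophan-tRNA ligase, Mycobacterium tuberculosis (UniProt P9WFT3). Compounds at 10 µM. Higher most likely means stronger inhibition; the record gives no direction and few retests gave an IC50. Of about 65,000 compounds tested this way, about 64 (0.098%) reached 50% or more in at least one test.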

Each number is a percent effect as filed.
How 0% and 100% were set is not recorded. Most values in the screen are low, and negative values occur.
The compounds are a random part of those screened.
A dash means the value is not listed here; it may have been measured.

structure	CoaBC	MtTrpRS
COc1c(CNC2CCc3cc(C)ccc32)c(C)nn1C (stereo not drawn)	-3.753	1.42
c1ncn(CC2CCCN2Cc2cn3ccsc3n2)n1 (stereo not drawn)	5.699	-0.6681
Cc1cc(C)cc(CN2CCN(C(=O)CCc3n[nH]c(C)n3)CC2=O)c1	-0.5981	-2.441
O=C(c1ccccn1)N1C[C@@H]2CC[C@H](C1)N(C(=O)CCc1cccs1)C2	-10	0.2486
O=C(C1CCCN1Cc1nc(-c2ccco2)no1)N1CCSCC1 (stereo not drawn)	8.557	-6.09
CC(OCC1CC1)C(=O)N1CCCN(c2cccnn2)CC1 (stereo not drawn)	8.471	-1.56
CS(=O)(=O)NCc1ncn2c1CN(CCN1CCCC1)CCC2	-3.448	0.5348
CCC1COCCN1C(=O)NCc1nccn1Cc1ccccc1 (stereo not drawn)	3.185	-0.5113
CNC(=O)NC(=O)CSc1ccc2c(c1)CCC2	9.921	5.718
Cc1nc(C(=O)N2CCCC2c2cncc(CN3CCCC3)n2)co1 (stereo not drawn)	-6.553	3.03
N#CCCN(CC1CCCO1)C(=O)c1ccc(C#N)cc1 (stereo not drawn)	0.9709	-
O=C(c1ccc2sccc2c1)N1CCC(C(=O)O)(n2cccn2)CC1	12.53	-0.854
CN(Cc1cccs1)C(=O)Cn1cc(NC(=O)C(C)(C)C)cn1	-4.28	-2.279
Cc1ccc(CNC(C)c2cc(F)ccc2N2CCN(C)CC2)o1 (stereo not drawn)	-25.81	1.554
O=C(N1CCCC1)N1C[C@@H](OCc2cccnc2)[C@H]2OCCC[C@H]21	6.303	-1.569
O=C(O)c1c(-c2cncnc2)ncc2c1CCN(CC1CCOC1)C2 (stereo not drawn)	1.361	-
Cc1nc(CNC(=O)c2cc(COc3cccc(F)c3)[nH]n2)n[nH]1	0.1258	-0.6803
CNc1nc(C)cc(NC2CCCN(C3Cc4ccccc4C3)C2)n1 (stereo not drawn)	0.1242	-3.907
CCOc1ccccc1C(C(=O)O)N(C)Cc1cc(C)[nH]n1 (stereo not drawn)	1.294	1.665
CC(NC(=O)C1=NN(C)C(=O)CC1)c1ccc(F)cc1F (stereo not drawn)	4.478	-1.782
N#Cc1ccccc1CN1C[C@H]2CC[C@@H]1CN(C(=O)c1cccnc1)C2	0.6031	-0.2174
Cc1ccc(C(=O)NC(CN2CCCC2=O)c2ccccc2)cn1 (stereo not drawn)	3.676	-4.331
O=C(c1cc(COc2ccc3c(c2)OCO3)[nH]n1)N1CCCO1	0.8485	-8.215
N#Cc1cnc2ccccc2c1N1CCNCC1	11.44	-0.3276
CCOc1ccc(-c2ccnc(CC)n2)cc1C(=O)O	6.183	-0.387
CN1CCOC(CNC(=O)CCCOc2cccc(F)c2)C1 (stereo not drawn)	2.895	-3.476
Cn1cc(C(=O)N2CCO[C@@H]3CN(C4CCC4)C[C@@H]3C2)cn1	2.439	-
Cc1cc(C)n(C2CN(CC(=O)NC(C3CC3)C3CC3)C2)n1	3.944	-10.22
CN1CCC2(CCN(CC3CC3)CC2)C1=O	9.937	2.467
CN(C)C(=O)N1CCC2(CC1)CCN(Cc1ccccn1)C2=O	8.28	0.5863
c1cnc(-c2nc(CN3CCCN(Cc4cccs4)CC3)cs2)nc1	13.08	-6.193
CCOCC1CN(C(=O)Cc2cccs2)Cc2ccnn2C1 (stereo not drawn)	2.284	-3.539
CCOc1cc(C(=O)N2CCCC2)cc2occc12	3.061	3.055
COc1cc(F)ccc1C(C(=O)O)N1CCN(C2CCCCC2)CC1 (stereo not drawn)	-7.46	-2.22
Cc1cc(C(=O)N2CC[C@H]3C[C@H](c4ccncn4)O[C@@H]3C2)c(C)[nH]1	10.92	4.882
Cc1nc(CN2CCCC(NCc3cnn(C)c3)C2)no1 (stereo not drawn)	2.194	4.576
CNc1nc2c(c(C(=O)N3CCCC3)n1)CN(C(=O)c1cccs1)CC2	10.5	5.948
COc1cccc(-c2c[nH]c(C)n2)c1F	4.453	-3.415
Cc1nc(C)c(CC(=O)NCc2ccc(F)cc2)s1	-9.906	0.4619
CN(Cc1cccc(F)c1)C(=O)CS(=O)(=O)Cc1c(Cl)cccc1Cl	0.9828	3.062
COc1cccc(CNC(=O)CCNS(=O)(=O)c2ccc(C)cc2)c1	12.12	3.004
CCC(=O)NCC(=O)N(C)C(c1ccc(Cl)cc1)c1cccnc1 (stereo not drawn)	-1.58	0.1608

The first 5 entries again:

COc1c(CNC2CCc3cc(C)ccc32)c(C)nn1C (stereo not drawn) gave CoaBC: -3.753%; MtTrpRS: 1.42%.
c1ncn(CC2CCCN2Cc2cn3ccsc3n2)n1 (stereo not drawn) gave CoaBC: 5.699%; MtTrpRS: -0.6681%.
Cc1cc(C)cc(CN2CCN(C(=O)CCc3n[nH]c(C)n3)CC2=O)c1 gave CoaBC: -0.5981%; MtTrpRS: -2.441%.
O=C(c1ccccn1)N1C[C@@H]2CC[C@H](C1)N(C(=O)CCc1cccs1)C2 gave CoaBC: -10%; MtTrpRS: 0.2486%.
O=C(C1CCCN1Cc1nc(-c2ccco2)no1)N1CCSCC1 (stereo not drawn) gave CoaBC: 8.557%; MtTrpRS: -6.09%.

Measurements from “University of Dundee, Small-Polar-MMV Screening Library” (2021), ChEMBL document CHEMBL3988442.